# Experimental data reported in patent US20080021105A1, “Medicine Capable of Inhibiting Activation of Transcription Factor Klf5” (THE UNIVERSITY OF TOKYO, priority 2004, published 2008).
# Test system: vascular intimal hyperplasia resulted from vascular injury due to the cuff
# Assay: Mouse cuff-induced injury model, Example 3-2 (EVG staining)
# Format: in vivo, C57BL6/N mice
# Method: Vascular remodeling analysis was performed by using a cuff-induced injury model. Usefulness of this model in relation to vascular remodeling has been reported (Physiol. Genomics, 2, pp.13-30, 2000; Circulation, 104, pp.2716-2721; Circulation, 106, pp.847-853, 2002). For this experiment, 8-week old male C57BL6/N mice (10 animals/group) were used. In an amount of 100 or 200 mg/kg of NIK-333 or 5 or 10 mg/kg of ATRA suspended in soybean oil was orally given once daily every day from 7 days before placement of a cuff (placement of polyethylene tube around blood vessel) to the day before sacrifice. The control group were received soybean oil alone in the same manner. After the 7-day pretreatment, the right femoral artery was covered with PE50 (polyethylene tube 50, outer diameter: 0.965 mm, length: about 1.5 mm) as a cuff. The animals were sacrificed after 5 weeks. Blood was collected, and the cuff was removed under perfusion fixation via puncture of the left ventricle. For pathological evaluation, Elastica van Gieson (EVG) staining was performed. As a result, the ratio of I/M (intima/media) in vascular intimal hyperplasia resulted from vascular injury due to the cuff decreased in the NIK-333 treatment groups compared with the control group.
structure (smiles),measurement,setting,value
"CC1=C(/C=C/C(C)=C/C=C/C(C)=C/C(=O)O)C(C)(C)CCC1 [ATRA, all-trans-retinoic acid]",significance of I/M ratio,5 mg/kg,No significant difference
same,significance of I/M ratio,10 mg/kg,No significant difference
